Data as given in PubChem BioAssay AID1224830 (NIAID, 2016).

- Purpose: 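Host factors that control LPS-induced TNF expression in human macrophages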 (primary screen)
- Cell system: human THP-1 monocytic leukaemia cells, TNF dual-luciferase reporter clone, PMA-differentiated to macrophage-like cells
- Reagent: siRNA pool against human genes, 50 nM
- Time to read-out: LPS for 4 h, given about 3 days after siRNA transfection
- Conditions: bacterial LPS (TLR4 ligand), 10 ng/ml
- Measurement: 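TNF firefly reporter luminescence divided by renilla, normalised to the plate median, then turned into a robust z-score for each replicate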
- Scale: TNF reporter robust z-score: higher = stronger TNF reporter response to LPS
- Rule for the call: 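a well is active when its z-score exceeds 2.8 or falls below -1.5; control wells carry no call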
In all, the deposit lists about 18,000 reagents; shown is a part drawn at random. Of all reagents, about 2,900 (16%) got an active call. 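Calls are made per well; low scores hint the gene aids the LPS response, high scores that it dampens it.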 Repeated entries: four replicate wells of each siRNA pool. No sequences are given here.

The opening 4 entries as a preview:
| Gene | TNF reporter robust z-score | Call |
| --- | --- | --- |
| PSMC4 | -1.2 | inactive |
| PSMC4 | -1.15 | inactive |
| PSMC4 | -1.09 | inactive |
| PSMC4 | -0.77 | inactive |

The listing, repeating the preview:
| Gene | TNF reporter robust z-score | Call |
| --- | --- | --- |
| PSMC4 | -1.2 | inactive |
| PSMC4 | -1.15 | inactive |
| PSMC4 | -1.09 | inactive |
| PSMC4 | -0.77 | inactive |
| LHFPL4 | -1.45 | inactive |
| LHFPL4 | -0.91 | inactive |
| LHFPL4 | -1.35 | inactive |
| PCSK9 | -0.63 | inactive |
| PCSK9 | 0.12 | inactive |
| PCSK9 | 0.37 | inactive |
| PCSK9 | -0.66 | inactive |
| PMFBP1 | -0.61 | inactive |
| PMFBP1 | -0.08 | inactive |
| PMFBP1 | -0.54 | inactive |
| PMFBP1 | 0.32 | inactive |
| RPS6KL1 | 1.52 | inactive |
| RPS6KL1 | 0.75 | inactive |
| RPS6KL1 | 1.39 | inactive |
| RPS6KL1 | 1.45 | inactive |
| APCDD1L | -0.11 | inactive |
| APCDD1L | 0.14 | inactive |
| APCDD1L | -1.23 | inactive |
| APCDD1L | -0.34 | inactive |
| ICAM4 | 0.15 | inactive |
| ICAM4 | 2.26 | inactive |
| ICAM4 | 1.7 | inactive |
| ICAM4 | 2.33 | inactive |
| CYP2C8 | -0.12 | inactive |
| CYP2C8 | -0.68 | inactive |
| CYP2C8 | -0.63 | inactive |
| CYP2C8 | 0.52 | inactive |
| SIPA1 | 0.09 | inactive |
| SIPA1 | 0.78 | inactive |
| SIPA1 | -0.28 | inactive |
| SIPA1 | -0.63 | inactive |
| KHSRP | -0.48 | inactive |
| KHSRP | -0.22 | inactive |
| KHSRP | -0.86 | inactive |
| KHSRP | 0.33 | inactive |
| CTSD | -0.78 | inactive |
| CTSD | -0.54 | inactive |
| CTSD | 0.79 | inactive |
| CTSD | -0.68 | inactive |
| U2AF2 | 0.12 | inactive |
| U2AF2 | -0.34 | inactive |
| U2AF2 | -0.07 | inactive |
| U2AF2 | -0.33 | inactive |
